Source: patent US9597416B2, “Fluorescent membrane intercalating probes and methods for their use” (PHANOS TECHNOLOGIES, INC., priority 2005, dated 2017)

Tested on: U937 cells
Experiment: Dye dilution / mean fluorescence intensity monitoring of labeled cells by flow cytometry
Assay type: cell-based
[1] = 488 nm excitation for PKH26, 405 nm for F305B, 633 nm for F308B

## CCCCCCCCCCCCCCCCCCCCCC[N+]1=C(/C=C/C=C/C=C2/N(CCCCCCCCCCCCCC)c3ccc([N+](=O)[O-])cc3C2(C)C)C(C)(C)c2ccccc21.[I-] [Compound F308B]
[1]
  signal:noise ratio at T0 relative to PKH26: greater

## CCCCCCCCCCCCCCCCCCCCCC[n+]1c(/C=C2\Sc3ccccc3N2CCCCCCCCCCCCCC)sc2ccccc21.[I-] [Compound F305B]
[1]
  signal:noise ratio at T0 relative to PKH26: lower

## CCCCCCCCCCCCCCCCCCCCCC[N+]1=C(/C=C/C=C/C=C/C=C2/N(CCCCCCCCCCCCCC)c3ccc([N+](=O)[O-])cc3C2(C)C)C(C)(C)c2ccccc21.[I-] [Compound F319B]
FACSAria, 785 nm excitation for F319B, 488 nm for PKH26
  signal:noise ratio at T0 relative to PKH26: approx 5 ×
